Test results taken from article PMC4673166.

Chains of the proteins cited; added tags and fusions are not shown. Lines headed by an entry give the natural chain unless they say otherwise; changes in a name come on top.
UniProt P10417: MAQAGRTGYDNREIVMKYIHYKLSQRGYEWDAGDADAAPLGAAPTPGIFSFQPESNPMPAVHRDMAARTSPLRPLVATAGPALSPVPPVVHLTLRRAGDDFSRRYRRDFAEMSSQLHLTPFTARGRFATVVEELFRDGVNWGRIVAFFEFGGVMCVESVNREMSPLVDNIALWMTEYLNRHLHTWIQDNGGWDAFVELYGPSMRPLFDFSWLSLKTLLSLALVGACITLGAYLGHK
UniProt Q9JLV5: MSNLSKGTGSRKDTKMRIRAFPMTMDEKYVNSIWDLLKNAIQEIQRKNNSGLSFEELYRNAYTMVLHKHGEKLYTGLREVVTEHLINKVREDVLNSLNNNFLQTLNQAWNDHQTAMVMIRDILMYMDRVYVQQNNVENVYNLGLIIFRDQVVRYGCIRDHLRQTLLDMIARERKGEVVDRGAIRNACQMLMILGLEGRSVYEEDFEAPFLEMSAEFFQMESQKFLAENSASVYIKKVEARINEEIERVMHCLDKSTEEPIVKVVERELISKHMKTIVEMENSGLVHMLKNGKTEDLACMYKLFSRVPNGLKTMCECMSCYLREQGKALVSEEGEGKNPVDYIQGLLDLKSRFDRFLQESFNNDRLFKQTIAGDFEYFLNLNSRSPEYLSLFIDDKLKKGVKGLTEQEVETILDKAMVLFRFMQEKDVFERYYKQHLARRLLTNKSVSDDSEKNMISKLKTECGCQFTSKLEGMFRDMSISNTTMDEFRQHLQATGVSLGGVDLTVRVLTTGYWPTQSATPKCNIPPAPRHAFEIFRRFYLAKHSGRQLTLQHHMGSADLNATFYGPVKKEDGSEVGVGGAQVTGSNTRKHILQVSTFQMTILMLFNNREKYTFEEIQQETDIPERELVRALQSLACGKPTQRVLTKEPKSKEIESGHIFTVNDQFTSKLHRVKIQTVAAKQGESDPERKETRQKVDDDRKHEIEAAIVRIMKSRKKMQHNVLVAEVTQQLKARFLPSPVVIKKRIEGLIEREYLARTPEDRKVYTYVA

What was measured:
Assay in all cases: co-IP; lysates of SK1 cells transfected with GST-tagged bcl-2 constructs and treated with GO6976; immunoprecipitated with anti-GST antibody, immunoblotted with anti-Keap1 or anti-Cul3 antibody
[1] = molecular target: Bcl-2 BH2 deletion mutant tagged with GST (UniProt P10417)
[2] = molecular target: Bcl-2 BH4 deletion mutant tagged with GST (UniProt P10417)
[3] = molecular target: Bcl-2/R17 (lysine 17 mutant) tagged with GST (UniProt P10417)

- binding [1]: no binding
- binding [2]: no binding
- binding [3]: no binding
Substance: Cul3 (from UniProt Q9JLV5 1-768)

Results are given in words; binding and its absence hold for the method and conditions named. In cells and extracts the contact can be indirect.
